Laboratory results published in publication PMC4373682.
Results are given in words; binding and its absence hold for the method and conditions named. For part of these data: In cells and extracts the contact can be indirect. Some binding calls cover weakened binding; strength is not graded here. Tags and fused reporters may be left off the sequences shown. Blank lines part the entries; values can stand above or below the molecule they belong to.

Sequences of proteins named here, by UniProt entry; tags and fusion partners are left off.
UniProt Q9JHL1: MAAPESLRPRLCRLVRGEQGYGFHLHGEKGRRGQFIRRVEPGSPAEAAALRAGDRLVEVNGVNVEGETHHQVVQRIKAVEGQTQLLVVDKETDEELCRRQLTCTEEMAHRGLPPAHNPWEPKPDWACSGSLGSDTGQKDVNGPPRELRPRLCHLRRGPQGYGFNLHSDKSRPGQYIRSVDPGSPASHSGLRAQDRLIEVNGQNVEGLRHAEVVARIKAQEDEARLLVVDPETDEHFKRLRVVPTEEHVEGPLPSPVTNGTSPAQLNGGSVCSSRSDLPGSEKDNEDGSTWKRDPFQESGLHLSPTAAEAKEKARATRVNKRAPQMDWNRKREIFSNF
UniProt P26040: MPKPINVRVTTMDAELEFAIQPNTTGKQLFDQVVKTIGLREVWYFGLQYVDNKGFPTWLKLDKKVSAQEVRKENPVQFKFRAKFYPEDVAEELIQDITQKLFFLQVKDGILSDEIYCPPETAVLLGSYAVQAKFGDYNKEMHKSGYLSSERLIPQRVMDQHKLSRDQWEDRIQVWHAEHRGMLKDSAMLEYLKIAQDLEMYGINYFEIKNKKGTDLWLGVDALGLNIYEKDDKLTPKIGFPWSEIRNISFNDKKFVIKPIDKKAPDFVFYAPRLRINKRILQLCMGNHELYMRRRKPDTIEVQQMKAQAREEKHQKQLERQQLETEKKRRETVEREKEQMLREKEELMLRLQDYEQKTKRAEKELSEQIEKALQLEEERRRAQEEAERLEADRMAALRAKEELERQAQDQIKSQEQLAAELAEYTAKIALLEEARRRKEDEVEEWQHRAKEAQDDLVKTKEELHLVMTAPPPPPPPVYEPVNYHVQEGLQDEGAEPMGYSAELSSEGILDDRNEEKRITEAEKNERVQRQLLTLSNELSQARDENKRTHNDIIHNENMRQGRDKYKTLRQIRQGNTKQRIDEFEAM

Columns and labels:
[1] = target: T1, Myc-tagged Schip1 (transfected HEK293 cells) (mouse) (UniProt P0DPB4); assay: co-IP; lysates of transiently cotransfected HEK293 cells; 0.5% Triton X-100, 20 mM Tris-HCl pH 7.4, 150 mM NaCl; primary antibody overnight, protein A+G agarose beads 1 h at 4°C
T1 sequence: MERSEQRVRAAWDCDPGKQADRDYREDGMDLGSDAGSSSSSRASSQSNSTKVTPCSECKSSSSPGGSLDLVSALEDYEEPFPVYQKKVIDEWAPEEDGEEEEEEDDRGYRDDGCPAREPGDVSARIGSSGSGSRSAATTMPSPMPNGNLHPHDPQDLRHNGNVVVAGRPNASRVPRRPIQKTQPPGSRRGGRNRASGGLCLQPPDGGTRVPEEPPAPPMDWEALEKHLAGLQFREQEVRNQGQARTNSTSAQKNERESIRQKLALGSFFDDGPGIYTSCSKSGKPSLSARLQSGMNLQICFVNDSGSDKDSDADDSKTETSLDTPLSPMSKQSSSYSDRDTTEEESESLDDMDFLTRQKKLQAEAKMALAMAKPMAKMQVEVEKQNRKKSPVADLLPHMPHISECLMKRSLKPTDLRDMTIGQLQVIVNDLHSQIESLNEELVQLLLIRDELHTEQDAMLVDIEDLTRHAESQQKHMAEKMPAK

[2] = target: T2, Schip1 most C-terminal coiled-coil domain (amino-acids 398-459), Gal4 DNA-binding domain fusion bait (mouse) (UniProt P0DPB4); assay: two-hybrid; yeast two-hybrid screen of a mouse kidney glomerulus cDNA library with a Gal4 DNA-binding domain bait; selective drop-out medium; 32 clones sequenced
T2 sequence: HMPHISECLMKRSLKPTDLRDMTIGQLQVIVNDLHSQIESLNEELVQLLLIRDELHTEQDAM

[3] = target: Flag-tagged Nherf2 (transfected HEK293 cells) (mouse) (UniProt Q9JHL1); assay: co-IP; lysates of transiently cotransfected HEK293 cells; 0.5% Triton X-100, 20 mM Tris-HCl pH 7.4, 150 mM NaCl; primary antibody overnight, protein A+G agarose beads 1 h at 4°C

- binding [1]: binds
Molecule: ezrin (transfected HEK293 cells) (from UniProt P26040 1-586)

- binding [2]: binds
Molecule: full-length Nherf2 (prey clone from a mouse kidney glomerulus cDNA library) (from UniProt Q9JHL1 1-337)

- binding [3]: binds
B1: Myc-tagged Schip1 (transfected HEK293 cells) (protein, UniProt P0DPB4 1-484)
chain: MERSEQRVRAAWDCDPGKQADRDYREDGMDLGSDAGSSSSSRASSQSNSTKVTPCSECKSSSSPGGSLDLVSALEDYEEPFPVYQKKVIDEWAPEEDGEEEEEEDDRGYRDDGCPAREPGDVSARIGSSGSGSRSAATTMPSPMPNGNLHPHDPQDLRHNGNVVVAGRPNASRVPRRPIQKTQPPGSRRGGRNRASGGLCLQPPDGGTRVPEEPPAPPMDWEALEKHLAGLQFREQEVRNQGQARTNSTSAQKNERESIRQKLALGSFFDDGPGIYTSCSKSGKPSLSARLQSGMNLQICFVNDSGSDKDSDADDSKTETSLDTPLSPMSKQSSSYSDRDTTEEESESLDDMDFLTRQKKLQAEAKMALAMAKPMAKMQVEVEKQNRKKSPVADLLPHMPHISECLMKRSLKPTDLRDMTIGQLQVIVNDLHSQIESLNEELVQLLLIRDELHTEQDAMLVDIEDLTRHAESQQKHMAEKMPAK
